From PubChem BioAssay AID504523 (Broad Institute, 2011)
The campaign covered roughly 340,000 compounds. About 490 (0.14%) were called active. The inconclusive results got no clear call from the source; some entries with a clear call stand among them for comparison. No stated cut-off is given here; in the data, active means inhibition above about 12%; inconclusive means no clear call, values can overlap the other calls; inactive means below about 7.3%.

The chains behind the UniProt entries cited, without tags or fusion partners.
UniProt Q14145, whole entry, looked up: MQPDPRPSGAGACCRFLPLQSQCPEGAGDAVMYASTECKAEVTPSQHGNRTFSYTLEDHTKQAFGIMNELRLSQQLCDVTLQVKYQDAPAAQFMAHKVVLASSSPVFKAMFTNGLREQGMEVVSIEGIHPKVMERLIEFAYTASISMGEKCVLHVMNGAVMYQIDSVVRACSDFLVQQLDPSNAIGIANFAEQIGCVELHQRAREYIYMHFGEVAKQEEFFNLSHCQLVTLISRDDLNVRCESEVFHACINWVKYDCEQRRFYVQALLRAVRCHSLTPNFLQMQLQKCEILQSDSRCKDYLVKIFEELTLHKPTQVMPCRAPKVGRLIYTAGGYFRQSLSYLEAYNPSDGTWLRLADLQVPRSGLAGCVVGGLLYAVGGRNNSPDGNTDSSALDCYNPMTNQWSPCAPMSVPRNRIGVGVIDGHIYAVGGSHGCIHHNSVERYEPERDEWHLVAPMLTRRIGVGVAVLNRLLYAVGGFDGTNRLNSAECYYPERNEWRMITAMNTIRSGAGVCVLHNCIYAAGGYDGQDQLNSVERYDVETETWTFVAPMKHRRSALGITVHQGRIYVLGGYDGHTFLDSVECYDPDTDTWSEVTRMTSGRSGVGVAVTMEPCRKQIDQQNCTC

Target: Kelch-like ECH-associated protein 1 (Homo sapiens) (UniProt Q14145)
Experiment: disruptors of Keap1 binding to Nrf2 – biochemical, fluorescence polarization, single point, primary screen (AID 504523);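 further: human Keap1 Kelch domain with fluorescein labeled Nrf2 9mer peptide probe; 0% = neutral control wells and 100% = peptide positive control; higher means more block of Keap1 binding to Nrf2 peptide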
Details: Keap1 Kelch-Nrf2 peptide fluorescence polarization, 1536-well; at 9.4 µM; hits give high values

SMILES | inhibition
COC(=O)C1=COC(C)C2CN3CCc4c([nH]c5ccccc45)C3CC12 (stereo not given) | active: 15.1%
CN(C)c1ccc(C(=S)N2CCN(Cc3ccccc3)CC2)cc1 | inactive: 0.881%
Cc1ccc(C)c(NC(=O)C2CC(=O)N(C(C)C)C2)c1 (stereo not given) | inconclusive: 7.68%
COc1cc(CNC(=O)C2CCCC2)cc(OC)c1OC | inconclusive: 9.03%
CN1CCCc2cc3c(C(F)(F)F)cc(=O)oc3nc21 | inconclusive: 9.67%
Cc1cnc(C(=O)Oc2cccc(Cl)c2Cl)cn1 | inconclusive: 9.04%
O=C(CCCC1=NS(=O)(=O)c2ccccc2N1)NCCc1ccc(Cl)cc1 | inconclusive: 6.36%
COc1ccccc1C(=O)NC(=O)COC(=O)c1cccc(C)c1O | inactive: 3.1%
CCn1c(CC(=O)Nc2cccc(OC)c2)nnc1SCC(=O)Nc1nccs1 | inconclusive: 9.35%
COC(=O)c1sc(S(=O)(=O)Nc2ccc3cn[nH]c3c2)c(C(=O)OC)c1C | inconclusive: 8.36%
Cc1ccc(N2C(=O)C(Cl)=C(N3CCCCCC3)C2=O)c(C)c1 | inactive: -3.12%
Cc1ccc(S(=O)(=O)N(C)C)cc1NS(=O)(=O)c1ccc(Cl)s1 | inconclusive: 11.1%
COc1ccc(C(=S)N2CCOCC2)cc1OC(=O)c1cc(OC)c(OC)c(OC)c1 | inactive: -6.73%
Cc1ccc(S(=O)(=O)Nc2cc3c(C(=O)O)c(C)oc3c3ccccc23)c(C)c1 | inconclusive: 11.8%
c1ccc(CSC2=NNC(c3ccccn3)S2)cc1 (stereo not given) | inactive: -3.75%
NC(=O)C[n+]1cccc2ccccc21 | inconclusive: 11.4%
CCN(Cc1ccccc1)C(=O)CC1Oc2ccccc2NC1=O (stereo not given) | inconclusive: 7.46%
O=C(O)c1c2c(nc3ccccc13)/C(=C/c1ccc(O)cc1)CC2 | inactive: -4.73%
Cc1[nH]nc(SCC(=O)NCc2ccccc2)c1[N+](=O)[O-] | inactive: -2.15%
COc1cc(/C=C(\C#N)c2nc3ccccc3[nH]2)cc(OC)c1O | inactive: -52.3%
Cc1cccc(-[n+]2c(C)cc(C)c3c(=O)[nH]c(=O)[nH]c32)c1 | inconclusive: 9.58%
CCOC(=O)CCNC(=O)N1CCCC(C(=O)c2cccc(Cl)c2)C1 (stereo not given) | inconclusive: 7.23%
CCOC(=O)CCN(c1ccccc1)S(=O)(=O)c1ccc(-c2ccc(=O)[nH]n2)s1 | inconclusive: 8.36%

13 of the compounds above, as a markdown table:

| SMILES | inhibition |
| --- | --- |
| CN(C)c1ccc(C(=S)N2CCN(Cc3ccccc3)CC2)cc1 | inactive: 0.881% |
| Cc1ccc(C)c(NC(=O)C2CC(=O)N(C(C)C)C2)c1 (stereo not given) | inconclusive: 7.68% |
| Cc1cnc(C(=O)Oc2cccc(Cl)c2Cl)cn1 | inconclusive: 9.04% |
| O=C(CCCC1=NS(=O)(=O)c2ccccc2N1)NCCc1ccc(Cl)cc1 | inconclusive: 6.36% |
| COc1ccccc1C(=O)NC(=O)COC(=O)c1cccc(C)c1O | inactive: 3.1% |
| COC(=O)c1sc(S(=O)(=O)Nc2ccc3cn[nH]c3c2)c(C(=O)OC)c1C | inconclusive: 8.36% |
| Cc1ccc(S(=O)(=O)N(C)C)cc1NS(=O)(=O)c1ccc(Cl)s1 | inconclusive: 11.1% |
| COc1ccc(C(=S)N2CCOCC2)cc1OC(=O)c1cc(OC)c(OC)c(OC)c1 | inactive: -6.73% |
| c1ccc(CSC2=NNC(c3ccccn3)S2)cc1 (stereo not given) | inactive: -3.75% |
| NC(=O)C[n+]1cccc2ccccc21 | inconclusive: 11.4% |
| CCN(Cc1ccccc1)C(=O)CC1Oc2ccccc2NC1=O (stereo not given) | inconclusive: 7.46% |
| Cc1cccc(-[n+]2c(C)cc(C)c3c(=O)[nH]c(=O)[nH]c32)c1 | inconclusive: 9.58% |
| CCOC(=O)CCN(c1ccccc1)S(=O)(=O)c1ccc(-c2ccc(=O)[nH]n2)s1 | inconclusive: 8.36% |

Additional structures follow.

SMILES | inhibition
Cc1ccc[n+](-c2nc([O-])sc2C=O)c1 | active: 62.7%
O=C1C=CC(=O)c2c(O)c(N3CCN(CCOCCO)CC3)c(Br)c(O)c21 | active: 24.8%
Cc1ccc(-n2ncc(C(=O)NC3CC3)c2C2CCN(C(=O)OC(C)(C)C)CC2)c(C)c1 | inactive: -3.33%
Cc1nc2nc(-c3ccccc3)nn2c(C)c1C | inactive: -3.19%
Oc1ccc2nnc3c(Br)cnn3c2c1 | active: 37.1%
CCCCCOC(=O)C1=C(C)NC(=O)NC1c1ccc([N+](=O)[O-])cc1 (stereo not given) | inconclusive: 8.61%
Oc1ccc2c(c1)OCC1(O)Cc3cc(O)c(O)cc3C21 (stereo not given) | active: 18.2%
Cc1cc(C)nc(SCC(=O)N/N=C/c2cc(C)n(-c3ccccc3C)c2C)n1 | inconclusive: 9.6%
O=C1NN(c2ccccc2)C(=O)/C1=C/c1ccc(Sc2ccc(Cl)cc2)o1 | inconclusive: 6.95%
COc1cc(-c2c(C#N)c(N)nc(SCc3ccncc3)c2C#N)cc(OC)c1OC | inconclusive: 11.4%
CC(=O)N1CCN(S(=O)(=O)c2cccc(C(=O)NNC(=O)c3ccc(Br)cc3)c2)CC1 | active: 47.7%
CCOc1ccc(NC(=O)c2ccco2)c([N+](=O)[O-])c1 | inconclusive: -0.075%
COC1OC(O)C(NC(=O)C(F)(F)F)CC1O (stereo not given) | inactive: 2.23%
Cc1cc(C(=O)NCC(C)(C)N2CCOCC2)c(C)o1 | inactive: 3.1%
Cc1nc2nc(-c3ccco3)nn2c(C)c1Cl | inconclusive: 11%
Oc1cc(CNC2CCCCC2)c(O)cc1CNC1CCCCC1 | inactive: -0.31%
C=CCn1c(SCC(=O)NCc2ccco2)nnc1C1CCCCC1 | inactive: -5.6%
CCOC(=O)C1CCCN(C(=O)C2c3ccccc3Oc3ccccc32)C1 (stereo not given) | active: 46.6%
O=C(Nc1ccc(Oc2ccccc2)cc1)c1ccc(Cn2c(=O)[nH]c3ccsc3c2=O)cc1 | inactive: 7.3%
COc1cc(Cn2nnc3ccccc32)ccc1O | inconclusive: 7.3%
Cc1ccc(-n2nnnc2C(=Cc2ccc(N(C)C)cc2)c2nnnn2-c2ccc(C)cc2)cc1 | inconclusive: 2.2%
COc1ccc(CCNC(=O)c2cc(S(=O)(=O)N3CCOCC3)ccc2F)cc1 | inactive: -2.15%
